Results are given in words; binding and its absence hold for the method and conditions named. Binding seen in cells or lysates may run through a third protein.

Amino acid sequences for entries named in this document (tags omitted).
UniProt Q99814: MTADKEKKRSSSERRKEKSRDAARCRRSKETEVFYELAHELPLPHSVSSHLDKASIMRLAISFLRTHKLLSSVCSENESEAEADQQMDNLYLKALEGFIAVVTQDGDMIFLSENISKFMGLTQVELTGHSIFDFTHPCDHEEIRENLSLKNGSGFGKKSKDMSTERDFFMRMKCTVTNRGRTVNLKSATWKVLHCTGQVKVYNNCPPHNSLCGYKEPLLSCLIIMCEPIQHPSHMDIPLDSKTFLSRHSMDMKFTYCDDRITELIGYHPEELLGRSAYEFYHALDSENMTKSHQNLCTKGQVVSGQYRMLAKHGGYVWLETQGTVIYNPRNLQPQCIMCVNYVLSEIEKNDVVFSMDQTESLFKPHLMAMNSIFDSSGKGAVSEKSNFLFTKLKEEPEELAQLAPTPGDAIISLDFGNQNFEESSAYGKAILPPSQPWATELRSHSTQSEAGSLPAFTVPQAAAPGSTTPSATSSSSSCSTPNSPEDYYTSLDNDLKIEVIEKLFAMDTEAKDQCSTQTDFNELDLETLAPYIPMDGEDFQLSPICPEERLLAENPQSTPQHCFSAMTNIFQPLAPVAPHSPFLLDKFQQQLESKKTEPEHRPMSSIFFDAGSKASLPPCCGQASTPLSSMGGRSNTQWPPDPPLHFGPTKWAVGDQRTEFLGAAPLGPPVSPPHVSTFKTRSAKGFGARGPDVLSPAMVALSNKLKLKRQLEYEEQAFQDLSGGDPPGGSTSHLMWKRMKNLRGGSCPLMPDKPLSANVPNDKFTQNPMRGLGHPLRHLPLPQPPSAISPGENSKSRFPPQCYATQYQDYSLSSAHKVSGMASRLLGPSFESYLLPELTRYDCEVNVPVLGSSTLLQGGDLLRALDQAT

In this assay the target is HIF-2α (human (endogenous in 786-O)) (UniProt Q99814). Description: co-IP; lysates of 786-O-Vector and 786-O-MIIP cells immunoprecipitated with anti-HIF-2α antibody and protein A + G Sepharose beads; Western blot for RACK1, HSP90 and MIIP.

B1: migration and invasion inhibitory protein (MIIP) (protein, UniProt Q5JXC2 1-388)
chain: MVEAEELAQLRLLNLELLRQLWVGQDAVRRSVARAASESSLESSSSYNSETPSTPETSSTSLSTSCPRGRSSVWGPPDACRGDLRDVARSGVASLPPAKCQHQESLGRPRPHSAPSLGTSSLRDPEPSGRLGDPGPQEAQTPRSILAQQSKLSKPRVTFSEESAVPKRSWRLRPYLGYDWIAGSLDTSSSITSQPEAFFSKLQEFRETNKEECICSHPEPQLPGLRESSGSGVEEDHECVYCYRVNRRLFPVPVDPGTPCRLCRTPRDQQGPGTLAQPAHVRVSIPLSILEPPHRYHIHRRKSFDASDTLALPRHCLLGWDIFPPKSEKSSAPRNLDLWSSVSAEAQHQKLSGTSSPFHPASPMQMLPPTPTWSVPQVPRPHVPRQKP
Regarding B1, the binding entry is “no binding”.

The values are drawn from PMC9257321.
